Measured values: patent US20180066261A1
Results are given in words; binding and its absence hold for the method and conditions named. Binding seen in cells or lysates may run through a third protein. Some binding calls cover weakened binding; strength is not graded here.

Amino acid sequences for entries named in this document (tags omitted). A change or cut given only in a name is not applied to a line headed by its entry.
UniProt P10644: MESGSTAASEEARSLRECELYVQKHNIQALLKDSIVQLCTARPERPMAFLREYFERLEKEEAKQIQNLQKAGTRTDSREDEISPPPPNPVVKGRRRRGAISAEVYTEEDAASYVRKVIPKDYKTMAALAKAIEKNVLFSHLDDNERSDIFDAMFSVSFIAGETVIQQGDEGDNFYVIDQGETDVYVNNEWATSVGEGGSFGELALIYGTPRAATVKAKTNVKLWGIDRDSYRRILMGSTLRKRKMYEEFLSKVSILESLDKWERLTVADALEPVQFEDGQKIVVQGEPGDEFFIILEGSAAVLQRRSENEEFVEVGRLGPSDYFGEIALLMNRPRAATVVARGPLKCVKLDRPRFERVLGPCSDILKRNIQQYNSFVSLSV
UniProt P35250: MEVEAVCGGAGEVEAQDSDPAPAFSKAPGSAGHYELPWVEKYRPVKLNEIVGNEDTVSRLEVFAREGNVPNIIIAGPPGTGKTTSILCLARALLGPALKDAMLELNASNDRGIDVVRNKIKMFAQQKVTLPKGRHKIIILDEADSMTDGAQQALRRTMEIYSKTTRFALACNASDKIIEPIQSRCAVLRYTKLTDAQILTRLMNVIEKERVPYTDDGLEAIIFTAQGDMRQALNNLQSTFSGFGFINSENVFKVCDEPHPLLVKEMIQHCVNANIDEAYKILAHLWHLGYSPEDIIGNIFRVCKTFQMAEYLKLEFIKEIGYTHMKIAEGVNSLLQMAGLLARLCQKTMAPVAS

Target: RIα, regulatory subunit of Protein Kinase A (PKA) (UniProt P10644)
Assay: co-immunoprecipitation from MCF7 cell lysates with anti-RFC40 antibody; interaction present in untreated control, lost after treatment with the small molecule indole-3-carbinol

**Q.** With “Replication Factor C 40 (RFC40) (from UniProt P35250 1-354)” as the substance, how does the binding read?
**A.** The binding was “binds”.
